Earlier results on one molecule are cited in paper PMC6920949, “Muscle to Brain Partitioning as Measure of Transporter-Mediated Efflux at the Rat Blood–Brain Barrier and Its Implementation into Compound Optimization in Drug Discovery” (Pharmaceutics, 2019).

For the data set the following is noted: compounds without blood-brain barrier efflux; cited from earlier work.

The structures appear in SMILES notation.

In the case of `CN1C(=O)CN=C(c2ccccc2)c2cc(Cl)ccc21` [diazepam], the “distribution into brain and skeletal muscle” value was “very similar distributions into brain and skeletal muscle”.
